{"source": "the supplement of paper PMC6411743", "target": "T1, NPAT (UniProt Q14207)", "T1 sequence (whole entry)": "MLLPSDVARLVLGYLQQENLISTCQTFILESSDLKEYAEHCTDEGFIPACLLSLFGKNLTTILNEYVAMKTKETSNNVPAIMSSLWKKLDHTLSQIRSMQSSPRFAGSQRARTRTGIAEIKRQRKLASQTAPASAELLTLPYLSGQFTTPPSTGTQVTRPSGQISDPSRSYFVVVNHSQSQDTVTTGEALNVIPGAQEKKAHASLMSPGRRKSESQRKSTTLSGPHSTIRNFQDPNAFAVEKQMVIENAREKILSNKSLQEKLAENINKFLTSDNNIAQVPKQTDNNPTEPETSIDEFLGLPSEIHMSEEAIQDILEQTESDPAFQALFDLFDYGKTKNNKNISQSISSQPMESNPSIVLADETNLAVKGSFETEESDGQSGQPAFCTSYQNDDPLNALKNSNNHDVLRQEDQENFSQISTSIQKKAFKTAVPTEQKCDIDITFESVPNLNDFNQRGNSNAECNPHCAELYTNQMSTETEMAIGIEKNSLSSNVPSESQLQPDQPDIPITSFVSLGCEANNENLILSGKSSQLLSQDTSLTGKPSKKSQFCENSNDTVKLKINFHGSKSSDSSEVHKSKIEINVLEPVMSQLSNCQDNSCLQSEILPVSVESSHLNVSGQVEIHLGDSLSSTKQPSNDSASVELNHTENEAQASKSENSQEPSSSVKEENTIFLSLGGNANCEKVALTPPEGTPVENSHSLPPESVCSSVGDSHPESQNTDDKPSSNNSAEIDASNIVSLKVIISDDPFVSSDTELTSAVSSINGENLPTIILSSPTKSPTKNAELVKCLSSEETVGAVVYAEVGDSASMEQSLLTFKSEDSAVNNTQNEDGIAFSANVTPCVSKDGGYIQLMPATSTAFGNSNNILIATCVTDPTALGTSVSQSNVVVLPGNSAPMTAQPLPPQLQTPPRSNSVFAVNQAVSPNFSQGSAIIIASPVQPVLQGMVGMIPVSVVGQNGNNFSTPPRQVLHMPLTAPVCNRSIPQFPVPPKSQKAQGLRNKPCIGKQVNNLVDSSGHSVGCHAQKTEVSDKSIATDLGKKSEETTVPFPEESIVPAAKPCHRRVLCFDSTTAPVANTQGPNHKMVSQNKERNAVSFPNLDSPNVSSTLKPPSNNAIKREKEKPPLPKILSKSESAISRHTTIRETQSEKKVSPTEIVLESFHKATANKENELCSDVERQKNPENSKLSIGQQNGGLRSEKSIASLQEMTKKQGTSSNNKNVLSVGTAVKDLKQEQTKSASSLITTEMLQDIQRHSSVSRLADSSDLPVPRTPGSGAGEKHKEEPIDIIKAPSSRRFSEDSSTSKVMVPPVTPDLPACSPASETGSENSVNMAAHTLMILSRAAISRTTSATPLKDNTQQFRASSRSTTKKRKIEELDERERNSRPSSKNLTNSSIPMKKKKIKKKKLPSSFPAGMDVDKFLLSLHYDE", "test": "NP40-soluble protein abundance relative to vehicle (solubility fold change) (ratio); higher = more soluble protein in presence of GTP", "method": "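Solubility proteome profiling in Jurkat crude lysate. Lysate was treated with Mg-GTP (0.1-10 mM) for 10 min at room temperature and 3 min at 37 °C, then solubilised with 0.8% NP40 and benzonase, followed by ultracentrifugation. Proteins were quantified by TMT10 LC-MS/MS; the value is the NP40-soluble abundance relative to the NP40-processed vehicle, from 3 independent experiments.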", "note": "± gives the standard deviation of the averaged measurements. Some of the results follow."}
{"smiles": "Nc1nc2c(ncn2[C@@H]2O[C@H](COP(=O)(O)OP(=O)(O)OP(=O)(O)O)[C@@H](O)[C@H]2O)c(=O)[nH]1", "note": "[guanosine triphosphate]", "values": [{"measurement": "NP40-soluble protein abundance", "setting": "concentration: 0.1mM", "value": "1.06 ± 0.073"}, {"measurement": "NP40-soluble protein abundance", "setting": "concentration: 0.5mM", "value": "1.06 ± 0.029"}, {"measurement": "NP40-soluble protein abundance", "setting": "concentration: 1mM", "value": "1.15 ± 0.049"}, {"measurement": "NP40-soluble protein abundance", "setting": "concentration: 2mM", "value": "1.11 ± 0.052"}, {"measurement": "NP40-soluble protein abundance", "setting": "concentration: 4mM", "value": "1.16 ± 0.041"}, {"measurement": "NP40-soluble protein abundance", "setting": "concentration: 6mM", "value": "1.2 ± 0.077"}, {"measurement": "NP40-soluble protein abundance", "setting": "concentration: 8mM", "value": "1.16 ± 0.071"}, {"measurement": "NP40-soluble protein abundance", "setting": "concentration: 10mM", "value": "1.15 ± 0.057"}]}
